Data on one molecule can be found in article PMC11747444.

The chains behind the UniProt entries cited, without tags or fusion partners. Where a name states a change or a piece, a line headed by the entry shows the natural chain unless it says otherwise.
UniProt P14635: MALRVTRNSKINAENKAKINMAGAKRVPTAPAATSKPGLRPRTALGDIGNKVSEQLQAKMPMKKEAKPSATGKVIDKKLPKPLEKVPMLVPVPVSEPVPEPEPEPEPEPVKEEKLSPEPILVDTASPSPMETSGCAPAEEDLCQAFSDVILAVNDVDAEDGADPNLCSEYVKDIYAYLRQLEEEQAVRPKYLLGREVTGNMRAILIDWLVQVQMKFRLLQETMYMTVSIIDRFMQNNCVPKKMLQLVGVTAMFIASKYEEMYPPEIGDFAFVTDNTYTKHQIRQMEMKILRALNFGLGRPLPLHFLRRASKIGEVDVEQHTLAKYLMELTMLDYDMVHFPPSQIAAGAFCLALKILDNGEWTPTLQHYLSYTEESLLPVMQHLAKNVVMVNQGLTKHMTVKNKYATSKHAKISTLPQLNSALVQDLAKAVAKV

These are yes or no findings as the source states them, for the method shown. Binding seen in cells or lysates may run through a third protein. Some entries that bind do so weakly or less than the wild type.

Experiment [1] has as its target mNeonGreen (mNG)-tagged phosphate-binding pocket mutant cyclin B1 (R307E, H320F, K324E) (human) (UniProt P14635). Nature of the experiment: co-IP; mNeonGreen-trap magnetic agarose beads on lysates (NETN buffer) of doxycycline-induced HeLa mNG-cyclin B1^wt/mut cells enriched in mitosis (nocodazole; for Mad1 and APC3 cells depleted of cyclin B1 and B2); immunoblot.
For experiment [2], the target named is mNeonGreen (mNG)-tagged wild-type cyclin B1 (human) (UniProt P14635). The experiment is described as above.

B1: endogenous Mad1 (protein, UniProt Q9Y6D9 1-718)
chain: MEDLGENTMVLSTLRSLNNFISQRVEGGSGLDISTSAPGSLQMQYQQSMQLEERAEQIRSKSHLIQVEREKMQMELSHKRARVELERAASTSARNYEREVDRNQELLTRIRQLQEREAGAEEKMQEQLERNRQCQQNLDAASKRLREKEDSLAQAGETINALKGRISELQWSVMDQEMRVKRLESEKQELQEQLDLQHKKCQEANQKIQELQASQEARADHEQQIKDLEQKLSLQEQDAAIVKNMKSELVRLPRLERELKQLREESAHLREMRETNGLLQEELEGLQRKLGRQEKMQETLVGLELENERLLAKLQSWERLDQTMGLSIRTPEDLSRFVVELQQRELALKDKNSAVTSSARGLEKARQQLQEELRQVSGQLLEERKKRETHEALARRLQKRVLLLTKERDGMRAILGSYDSELTPAEYSPQLTRRMREAEDMVQKVHSHSAEMEAQLSQALEELGGQKQRADMLEMELKMLKSQSSSAEQSFLFSREEADTLRLKVEELEGERSRLEEEKRMLEAQLERRALQGDYDQSRTKVLHMSLNPTSVARQRLREDHSQLQAECERLRGLLRAMERGGTVPADLEAAAASLPSSKEVAELKKQVESAELKNQRLKEVFQTKIQEFRKACYTLTGYQIDITTENQYRLTSLYAEHPGDCLIFKATSPSGSKMQLLETEFSHTVGELIEVHLRRQDSIPAFLSSLTLELFSRQTVA
For the molecule B1, the binding result in experiment [1] and in experiment [2] was “binds” each time.
